Results as given in PubChem BioAssay AID212 (DTP/NCI, 2004).
The list does not hold the whole screen: it covers a few groups of compounds. Not every dose and run of a compound is shown. T/C: endpoint of the treated group in % of that of the vehicle group. Schedule codes are those of the source, taken here to give the interval after Q, in days (D) or hours (H), and the number of doses after X. Some T/C values carry the count of animals alive at the toxicity check; where neither a count nor a note follows, no animal had died by that day. Some entries hold several experiments; their values stand side by side, smallest first. Brackets with × count equal records among those shown. Some T/C values are marked as having no survivor count here; that says nothing about deaths at the dose. Some doses have a count of surviving animals in place of a T/C: the source holds a T/C of zero for them, seemingly a mark for toxic or unscored doses. Counts of survivors are from the toxicity check, whose day is not always given; animals may have died later.

System: BDF1 mice, colon carcinoma 38 sc, T/C %
Experiment: NCI In Vivo Anticancer Drug Screen. Data for tumor model Colon Carcinoma 38 (subcutaneous) in B6D2F1 (BDF1) mice
Settings: T/C endpoint: median tumor weight (est.), schedule: Q07DX002 (ip), higher T/C = larger tumour
Protocol: The antitumor activity of compounds was measured in mice bearing transplantable tumors. Survival or tumor size were measured and the results are expressed as the measurement made in the treated group (T) divided by the measurement made in the vehicle treated control group (C). The tumor model used in this assay is Colon Carcinoma 38 (subcutaneous) in B6D2F1 (BDF1) mice

[1] = dose: 20.0 mg/kg/injection, vehicle: Klucel (hydroxypropylcellulose) (HPC), evaluated on day 20
[2] = dose: 40.0 mg/kg/injection, vehicle: Klucel (hydroxypropylcellulose) (HPC), evaluated on day 20
[3] = dose: 50.0 mg/kg/injection, vehicle: Klucel (hydroxypropylcellulose) (HPC), evaluated on day 20
[4] = dose: 100.0 mg/kg/injection, vehicle: Klucel (hydroxypropylcellulose) (HPC), evaluated on day 20
[5] = dose: 200.0 mg/kg/injection, vehicle: Klucel (hydroxypropylcellulose) (HPC), evaluated on day 20
[6] = dose: 400.0 mg/kg/injection, vehicle: Klucel (hydroxypropylcellulose) (HPC), evaluated on day 20
[7] = dose: 800.0 mg/kg/injection, vehicle: Klucel (hydroxypropylcellulose) (HPC), evaluated on day 20

In the case of Nc1cc(N)cc(N(CCCl)CCCl)c1, the T/C (dose: 5.0 mg/kg/injection, vehicle: Klucel (hydroxypropylcellulose) (HPC), evaluated on day 20) is reported as 126 % of control, the T/C [1] is reported as 89 % of control and the T/C [2] is reported as 66 % of control.
For N#Cc1ccc(N(CCCl)CCCl)cc1, the T/C [3] was 100 % of control, the T/C [4] was 75 % of control and the T/C [5] was 76 % of control. For the same compound, the T/C [6] was 83 % of control [9 of 10 alive on day 20] and the T/C [7] was 76 % of control.
With COc1ccc(N(CCCl)CCCl)cc1 the T/C (dose: 12.5 mg/kg/injection, vehicle: Klucel (hydroxypropylcellulose) (HPC), evaluation day not shown) was 145 % of control [survivor count not shown], the T/C [1] was 79 % of control and the T/C (dose: 25.0 mg/kg/injection, vehicle: Klucel (hydroxypropylcellulose) (HPC), evaluation day not shown) was 67 % of control [survivor count not shown]. For the same compound, the T/C (dose: 31.25 mg/kg/injection, vehicle: Klucel (hydroxypropylcellulose) (HPC), evaluated on day 20) was 102 % of control, the T/C [2] was 56 % of control and the T/C (dose: 50.0 mg/kg/injection, vehicle: Klucel (hydroxypropylcellulose) (HPC), evaluation day not shown) was 118 % of control [survivor count not shown]. For the same compound, the T/C (dose: 62.5 mg/kg/injection, vehicle: Klucel (hydroxypropylcellulose) (HPC), evaluated on day 20) was 90 % of control, the T/C (dose: 80.0 mg/kg/injection, vehicle: Klucel (hydroxypropylcellulose) (HPC), evaluated on day 20) was 38 % of control and the T/C (dose: 125.0 mg/kg/injection, vehicle: Klucel (hydroxypropylcellulose) (HPC), evaluated on day 20) was 45 % of control [7 of 10 alive on day 20]. The T/C (dose: 160.0 mg/kg/injection, vehicle: Klucel (hydroxypropylcellulose) (HPC), evaluated on day 20) was 30 % of control [7 of 10 alive on day 20], the survivor count (dose: 250.0 mg/kg/injection, vehicle: Klucel (hydroxypropylcellulose) (HPC)) was 3 of 10 on day 20 and the survivor count (dose: 320.0 mg/kg/injection, vehicle: Klucel (hydroxypropylcellulose) (HPC)) was 0 of 10 on day 20.
With N#CC(C#N)=Cc1ccc(N(CCCl)CCCl)cc1 the T/C [3] was 100 and 116 % of control, the T/C [4] was 64 and 82 % of control (2×) and the T/C [5] was 38, 61 [9 of 10 alive on day 20], 75 % of control. The T/C [6] was 45 [9 of 10 alive on day 20], 47, 88 % of control [9 of 10 alive on day 20] and the T/C [7] was 7, 9, 36 % of control.
In the case of O=NN(CCSCCCl)C(=O)NC1CCCCC1, the T/C (dose: 6.25 mg/kg/injection, vehicle: saline with Tween-80, evaluated on day 20) is reported as 94 % of control, the T/C (dose: 12.5 mg/kg/injection, vehicle: saline with Tween-80, evaluated on day 20) is reported as 79 and 86 % of control and the T/C (dose: 25.0 mg/kg/injection, vehicle: saline with Tween-80, evaluated on day 20) is reported as 88 and 102 % of control. The T/C (dose: 50.0 mg/kg/injection, vehicle: saline with Tween-80, evaluated on day 20) was 67 % of control.
ClCCN(CCCl)c1ccc(Oc2ccccc2)cc1 was tested, and the T/C [3] was 124 % of control [9 of 10 alive on day 20], the T/C [4] was 124 % of control and the T/C [5] was 95 % of control. The T/C [6] was 130 % of control and the T/C [7] was 77 % of control.
Cc1ccc(N(CCCl)CCCl)cc1 was tested, and the T/C [3] was 83 % of control [9 of 10 alive on day 20], the T/C [4] was 83 % of control [8 of 10 alive on day 20] and the T/C [5] was 82 % of control [9 of 10 alive on day 20]. For the same compound, the T/C [6] was 43 % of control and the survivor count (dose: 800.0 mg/kg/injection, vehicle: Klucel (hydroxypropylcellulose) (HPC)) was 0 of 10 on day 20.
